The list shows a part of the results.
Key:
Experiment in all cases: log2 fold change, soluble protein after heating vs DMSO (PISA); higher = thermal stabilisation; K562 cells, 10 uM, 30 min; active = over 0.2 and 3.5 SD of the protein, either way, in both replicates (recomputed)
[1] = compound: C1=CC=C(C=C1)[C@H](COC2=CC3=C(C=C2)NC(=O)N3)NC(=O)C4=CC=CN(C4=O)CC5=CC(=C(C=C5)F)F
Procedure, shortened: (§1)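 K562 cells at 2×10^6 cells/mL were treated with 10 μM compound for 30 min. Aliquots were heated for 3 min across 48°C-58°C, pooled, and extracted in PBS with 0.5% NP-40 at 4°C; soluble protein was the supernatant after 21,000xg for 90 min. Soluble protein was quantified by TMTpro 16plex LC-MS/MS with channel sums equalised, and reported as log2 fold change in thermal stability against DMSO controls, with values from duplicates.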

Protein sequences, listed by entry. Tags and fused reporters are not part of them. Lines headed by an entry give the natural chain unless they say otherwise; changes in a name come on top.
UniProt P05937: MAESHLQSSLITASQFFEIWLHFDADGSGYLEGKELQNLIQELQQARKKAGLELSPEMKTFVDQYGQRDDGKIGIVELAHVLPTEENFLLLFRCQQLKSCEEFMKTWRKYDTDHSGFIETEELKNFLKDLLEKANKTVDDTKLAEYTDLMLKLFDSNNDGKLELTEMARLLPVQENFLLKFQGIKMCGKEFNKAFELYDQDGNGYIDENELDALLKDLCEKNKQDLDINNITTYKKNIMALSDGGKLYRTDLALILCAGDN
UniProt Q9H425: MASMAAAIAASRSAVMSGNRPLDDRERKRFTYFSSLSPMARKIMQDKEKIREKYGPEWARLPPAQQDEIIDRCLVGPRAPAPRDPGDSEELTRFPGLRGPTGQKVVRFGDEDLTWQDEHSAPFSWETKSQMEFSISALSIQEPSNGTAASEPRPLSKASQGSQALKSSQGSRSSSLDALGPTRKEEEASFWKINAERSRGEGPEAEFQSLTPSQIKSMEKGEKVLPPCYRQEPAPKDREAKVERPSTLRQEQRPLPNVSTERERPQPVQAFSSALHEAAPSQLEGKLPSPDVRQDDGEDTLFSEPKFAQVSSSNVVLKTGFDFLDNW
UniProt Q9P1Z2: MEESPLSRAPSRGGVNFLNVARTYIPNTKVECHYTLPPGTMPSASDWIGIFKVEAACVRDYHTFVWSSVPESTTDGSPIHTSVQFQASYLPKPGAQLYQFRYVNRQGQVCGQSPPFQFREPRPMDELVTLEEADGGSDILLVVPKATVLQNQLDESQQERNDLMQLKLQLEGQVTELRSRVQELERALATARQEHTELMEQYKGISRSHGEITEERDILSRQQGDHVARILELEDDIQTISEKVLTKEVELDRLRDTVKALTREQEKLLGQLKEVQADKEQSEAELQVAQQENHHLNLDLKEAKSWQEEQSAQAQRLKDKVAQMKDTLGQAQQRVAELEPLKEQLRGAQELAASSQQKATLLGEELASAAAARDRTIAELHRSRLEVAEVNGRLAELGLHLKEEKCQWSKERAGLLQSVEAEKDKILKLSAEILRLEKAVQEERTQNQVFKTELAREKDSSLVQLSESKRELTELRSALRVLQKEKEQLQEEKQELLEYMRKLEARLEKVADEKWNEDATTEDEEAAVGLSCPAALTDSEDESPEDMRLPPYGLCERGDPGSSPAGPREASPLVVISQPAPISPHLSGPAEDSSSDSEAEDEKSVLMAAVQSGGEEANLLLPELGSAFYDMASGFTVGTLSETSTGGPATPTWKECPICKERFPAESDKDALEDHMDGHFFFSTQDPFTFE
UniProt P47756, whole entry, looked up: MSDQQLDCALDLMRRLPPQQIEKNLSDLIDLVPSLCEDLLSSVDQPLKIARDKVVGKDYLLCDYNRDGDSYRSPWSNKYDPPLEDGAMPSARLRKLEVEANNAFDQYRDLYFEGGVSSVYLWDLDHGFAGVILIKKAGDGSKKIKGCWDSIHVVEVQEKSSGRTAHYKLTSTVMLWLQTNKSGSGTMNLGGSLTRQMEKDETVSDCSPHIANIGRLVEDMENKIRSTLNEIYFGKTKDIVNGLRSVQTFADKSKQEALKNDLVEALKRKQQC
UniProt Q07021: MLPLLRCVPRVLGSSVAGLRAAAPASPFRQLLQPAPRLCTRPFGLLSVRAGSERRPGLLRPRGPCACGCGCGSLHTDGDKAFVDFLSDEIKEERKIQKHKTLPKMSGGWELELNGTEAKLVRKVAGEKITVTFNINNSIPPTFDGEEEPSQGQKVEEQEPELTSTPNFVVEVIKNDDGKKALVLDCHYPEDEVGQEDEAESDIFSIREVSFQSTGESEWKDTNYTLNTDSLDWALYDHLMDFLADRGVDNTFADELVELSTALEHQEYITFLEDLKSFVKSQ
UniProt Q96LW7: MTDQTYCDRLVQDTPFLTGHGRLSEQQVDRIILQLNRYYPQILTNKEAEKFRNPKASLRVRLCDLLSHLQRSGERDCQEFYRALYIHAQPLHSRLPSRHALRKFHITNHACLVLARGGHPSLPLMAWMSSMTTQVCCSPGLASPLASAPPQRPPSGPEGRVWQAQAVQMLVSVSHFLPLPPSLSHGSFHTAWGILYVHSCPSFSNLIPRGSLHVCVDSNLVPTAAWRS
UniProt Q9H8G2: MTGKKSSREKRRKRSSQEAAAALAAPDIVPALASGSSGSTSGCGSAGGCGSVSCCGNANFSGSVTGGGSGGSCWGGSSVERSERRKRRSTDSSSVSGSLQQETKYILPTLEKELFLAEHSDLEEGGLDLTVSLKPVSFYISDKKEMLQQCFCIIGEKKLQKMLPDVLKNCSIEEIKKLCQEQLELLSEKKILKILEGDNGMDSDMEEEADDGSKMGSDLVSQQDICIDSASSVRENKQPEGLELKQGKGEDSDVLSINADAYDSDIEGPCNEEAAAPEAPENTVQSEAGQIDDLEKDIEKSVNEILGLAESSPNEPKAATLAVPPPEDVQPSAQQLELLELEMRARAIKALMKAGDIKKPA
UniProt P04632: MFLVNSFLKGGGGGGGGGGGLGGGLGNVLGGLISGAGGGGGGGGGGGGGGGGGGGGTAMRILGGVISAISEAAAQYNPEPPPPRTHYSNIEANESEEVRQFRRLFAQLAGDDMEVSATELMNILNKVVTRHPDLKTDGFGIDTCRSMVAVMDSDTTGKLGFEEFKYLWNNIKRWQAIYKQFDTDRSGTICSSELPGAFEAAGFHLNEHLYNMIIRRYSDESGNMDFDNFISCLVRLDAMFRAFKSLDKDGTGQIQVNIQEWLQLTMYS
UniProt Q9Y426: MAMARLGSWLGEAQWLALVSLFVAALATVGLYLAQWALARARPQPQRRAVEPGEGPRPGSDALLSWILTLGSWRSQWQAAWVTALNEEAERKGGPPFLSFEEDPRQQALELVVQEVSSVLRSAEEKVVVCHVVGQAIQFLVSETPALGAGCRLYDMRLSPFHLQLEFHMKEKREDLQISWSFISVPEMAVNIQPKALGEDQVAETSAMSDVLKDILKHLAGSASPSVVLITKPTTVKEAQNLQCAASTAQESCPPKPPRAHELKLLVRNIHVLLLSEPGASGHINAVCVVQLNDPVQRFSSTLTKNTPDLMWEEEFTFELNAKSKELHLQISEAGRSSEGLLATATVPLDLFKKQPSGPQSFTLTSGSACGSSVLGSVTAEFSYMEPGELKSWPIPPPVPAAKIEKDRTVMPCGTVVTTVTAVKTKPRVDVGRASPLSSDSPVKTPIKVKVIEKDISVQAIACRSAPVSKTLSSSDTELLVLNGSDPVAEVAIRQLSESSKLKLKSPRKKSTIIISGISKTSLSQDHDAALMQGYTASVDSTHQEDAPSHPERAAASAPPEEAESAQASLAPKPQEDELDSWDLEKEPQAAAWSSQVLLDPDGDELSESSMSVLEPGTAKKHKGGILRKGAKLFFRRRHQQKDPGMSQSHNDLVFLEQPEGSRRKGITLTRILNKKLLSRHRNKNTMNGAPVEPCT
UniProt P27708: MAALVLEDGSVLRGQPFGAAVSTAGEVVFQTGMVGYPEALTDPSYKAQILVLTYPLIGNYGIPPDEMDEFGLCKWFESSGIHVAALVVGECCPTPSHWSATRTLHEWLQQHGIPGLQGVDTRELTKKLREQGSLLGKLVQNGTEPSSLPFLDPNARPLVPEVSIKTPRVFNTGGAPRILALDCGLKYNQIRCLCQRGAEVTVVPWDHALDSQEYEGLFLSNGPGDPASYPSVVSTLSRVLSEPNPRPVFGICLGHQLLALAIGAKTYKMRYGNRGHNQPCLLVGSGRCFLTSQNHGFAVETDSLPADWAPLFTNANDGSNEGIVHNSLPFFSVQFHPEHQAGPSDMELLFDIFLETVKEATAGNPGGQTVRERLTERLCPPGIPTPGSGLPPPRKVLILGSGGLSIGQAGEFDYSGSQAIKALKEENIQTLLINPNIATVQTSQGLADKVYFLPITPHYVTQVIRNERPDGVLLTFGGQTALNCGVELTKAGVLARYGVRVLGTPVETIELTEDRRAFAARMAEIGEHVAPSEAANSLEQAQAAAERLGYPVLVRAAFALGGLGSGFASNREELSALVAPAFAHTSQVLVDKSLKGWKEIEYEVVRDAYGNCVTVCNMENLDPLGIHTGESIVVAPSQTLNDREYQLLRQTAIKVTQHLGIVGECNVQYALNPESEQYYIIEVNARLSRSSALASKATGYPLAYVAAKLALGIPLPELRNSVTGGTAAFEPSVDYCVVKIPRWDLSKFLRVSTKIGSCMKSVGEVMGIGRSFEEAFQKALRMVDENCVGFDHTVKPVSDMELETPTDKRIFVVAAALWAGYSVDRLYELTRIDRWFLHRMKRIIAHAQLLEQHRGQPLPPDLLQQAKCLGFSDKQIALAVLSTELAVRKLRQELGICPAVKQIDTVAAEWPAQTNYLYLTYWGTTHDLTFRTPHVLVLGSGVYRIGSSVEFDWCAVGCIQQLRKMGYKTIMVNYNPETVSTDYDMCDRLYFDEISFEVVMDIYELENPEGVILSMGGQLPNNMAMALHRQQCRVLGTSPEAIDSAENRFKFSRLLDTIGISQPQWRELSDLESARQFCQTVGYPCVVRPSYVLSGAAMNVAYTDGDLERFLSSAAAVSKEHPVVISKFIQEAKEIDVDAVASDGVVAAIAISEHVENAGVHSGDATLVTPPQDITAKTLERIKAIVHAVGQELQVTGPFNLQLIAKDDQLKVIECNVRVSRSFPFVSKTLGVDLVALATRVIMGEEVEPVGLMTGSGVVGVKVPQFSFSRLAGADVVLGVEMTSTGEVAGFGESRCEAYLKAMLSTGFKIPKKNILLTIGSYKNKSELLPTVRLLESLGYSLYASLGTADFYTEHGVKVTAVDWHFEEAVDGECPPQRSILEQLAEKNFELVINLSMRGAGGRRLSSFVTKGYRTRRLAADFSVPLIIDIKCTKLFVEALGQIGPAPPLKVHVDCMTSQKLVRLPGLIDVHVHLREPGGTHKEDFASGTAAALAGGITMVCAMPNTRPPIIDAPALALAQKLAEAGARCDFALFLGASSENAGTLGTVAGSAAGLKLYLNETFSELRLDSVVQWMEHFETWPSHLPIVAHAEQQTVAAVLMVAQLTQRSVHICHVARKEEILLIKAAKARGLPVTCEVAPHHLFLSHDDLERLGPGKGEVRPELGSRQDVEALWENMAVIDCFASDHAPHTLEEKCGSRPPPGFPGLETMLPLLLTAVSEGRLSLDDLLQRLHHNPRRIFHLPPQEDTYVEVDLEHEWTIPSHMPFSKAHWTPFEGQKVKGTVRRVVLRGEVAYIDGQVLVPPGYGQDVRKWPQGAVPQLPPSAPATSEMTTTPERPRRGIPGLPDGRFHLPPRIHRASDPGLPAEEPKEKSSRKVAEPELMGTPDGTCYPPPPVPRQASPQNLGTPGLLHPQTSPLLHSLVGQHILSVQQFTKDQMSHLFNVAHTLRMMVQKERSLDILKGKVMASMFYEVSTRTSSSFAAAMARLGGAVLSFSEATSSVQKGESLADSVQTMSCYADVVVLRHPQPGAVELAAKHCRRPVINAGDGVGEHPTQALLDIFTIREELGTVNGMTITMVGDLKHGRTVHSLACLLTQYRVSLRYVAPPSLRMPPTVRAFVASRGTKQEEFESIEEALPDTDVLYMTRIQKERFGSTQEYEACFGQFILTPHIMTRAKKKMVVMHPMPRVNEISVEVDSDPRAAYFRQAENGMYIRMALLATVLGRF
UniProt Q7KYR7: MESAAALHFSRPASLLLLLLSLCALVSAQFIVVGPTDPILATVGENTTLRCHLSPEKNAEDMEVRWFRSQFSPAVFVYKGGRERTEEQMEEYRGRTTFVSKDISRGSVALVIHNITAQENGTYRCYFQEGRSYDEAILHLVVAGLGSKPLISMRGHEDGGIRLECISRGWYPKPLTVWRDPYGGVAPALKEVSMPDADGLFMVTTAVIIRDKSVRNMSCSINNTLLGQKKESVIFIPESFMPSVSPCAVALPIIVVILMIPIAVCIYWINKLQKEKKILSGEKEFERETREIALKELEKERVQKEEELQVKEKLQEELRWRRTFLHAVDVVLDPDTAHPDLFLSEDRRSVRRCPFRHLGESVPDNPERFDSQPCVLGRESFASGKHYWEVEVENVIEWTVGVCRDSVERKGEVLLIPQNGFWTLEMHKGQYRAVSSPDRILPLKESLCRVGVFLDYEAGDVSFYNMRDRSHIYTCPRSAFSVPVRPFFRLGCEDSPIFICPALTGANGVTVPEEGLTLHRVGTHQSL
UniProt Q96B23: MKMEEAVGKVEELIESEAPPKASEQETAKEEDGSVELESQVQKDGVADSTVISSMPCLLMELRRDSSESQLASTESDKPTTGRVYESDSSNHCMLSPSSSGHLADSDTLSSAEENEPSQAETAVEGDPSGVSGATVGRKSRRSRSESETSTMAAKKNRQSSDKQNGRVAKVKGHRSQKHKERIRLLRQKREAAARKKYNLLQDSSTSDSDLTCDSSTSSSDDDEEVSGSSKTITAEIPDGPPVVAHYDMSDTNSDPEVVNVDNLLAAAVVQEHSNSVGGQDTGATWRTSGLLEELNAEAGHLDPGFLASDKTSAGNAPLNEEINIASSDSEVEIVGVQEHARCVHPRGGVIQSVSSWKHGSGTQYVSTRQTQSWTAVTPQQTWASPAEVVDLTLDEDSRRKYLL

[2] = compound: CC1=C(SC2=C1C(=N[C@H](C3=NN=C(N32)C)CC(=O)N)C4=CC=C(C=C4)Cl)C
Procedure, shortened: as §1

[3] = compound: CC1=C2C(=CC=C1)N=C(N(C2=O)C3=CC=CC=C3C)CN4C=NC5=C(N=CN=C54)N
Procedure, shortened: as §1

[4] = compound: Cc1sc2c(c1C)C(c1ccc(Cl)cc1)=N[C@@H](CC(=O)OC(C)(C)C)c1nnc(C)n1-2
Procedure, shortened: as §1

[5] = compound: c1ccc([C@@H]2C[C@H]2NC2CCNCC2)cc1
Procedure, shortened: as §1

Measured: log2 fold change

C19orf53 (UniProt Q9UNZ5)
inactive: [1] 0.105 | [2] -0.258 | [3] -0.266 | [4] 0.203 | [5] -0.01

CALB1 (UniProt P05937)
inactive: [1] 0.001 | [2] 0.009 | [3] -0.045 | [4] -0.068 | [5] 0.026

C1orf131 isoform 5 (UniProt Q8NDD1)
inactive: [1] 0.078 | [2] -0.192 | [3] -0.164 | [4] 0.11 | [5] 0.034

C3orf38 (UniProt Q5JPI3)
inactive: [1] 0.056 | [2] 0.07 | [3] 0.246 | [4] 0.026 | [5] -0.027

BUB1 (UniProt O43683)
inactive: [1] -0.015 | [2] 0.084 | [3] 0.112 | [4] 0.067 | [5] 0.018

C3 (UniProt P01024)
inactive: [1] -0.041 | [2] -0.065 | [3] -0.004 | [4] 0.053 | [5] 0.074

C1orf198 (UniProt Q9H425)
inactive: [1] 0.022 | [2] 0.017 | [3] -0.019 | [4] 0.045 | [5] 0.005

CAP1 isoform 2 (UniProt Q01518)
inactive: [1] -0.189

BTF3L4 (UniProt Q96K17)
inactive: [1] 0.004 | [2] 0.008 | [3] 0.028 | [4] -0.004 | [5] 0.015

CAPN15 (UniProt O75808)
inactive: [1] 0.012

BTBD6 (UniProt Q96KE9)
inactive: [1] 0.12 | [2] 0.073 | [3] 0.04 | [4] -0.117 | [5] -0.099

CAND1 (UniProt Q86VP6)
inactive: [1] 0.021 | [2] 0.001 | [3] -0.004 | [4] -0.019 | [5] 0.016

BYSL (UniProt Q13895)
inactive: [1] 0.001 | [2] -0.085 | [3] -0.09 | [4] 0.02 | [5] -0.042

CALCOCO1 (UniProt Q9P1Z2)
inactive: [1] -0.049 | [2] 0 | [3] 0.095 | [4] -0.013 | [5] 0.038

CAPZB (UniProt P47756)
inactive: [1] 0.008 | [2] 0.01 | [3] 0.025 | [4] -0.024 | [5] -0.044

2 consecutive entries out of the list so far, quoted:
CALCOCO1 (UniProt Q9P1Z2)
inactive: [1] -0.049 | [2] 0 | [3] 0.095 | [4] -0.013 | [5] 0.038

CAPZB (UniProt P47756)
inactive: [1] 0.008 | [2] 0.01 | [3] 0.025 | [4] -0.024 | [5] -0.044

More records.

C1QBP (UniProt Q07021)
inactive: [1] -0.02 | [2] 0.088 | [3] 0.032 | [4] -0.054 | [5] 0.009

C11orf54 (UniProt Q9H0W9)
inactive: [1] 0.014 | [2] 0.049 | [3] -0.038 | [4] 0.019 | [5] -0.033

CARD19 isoform 2 (UniProt Q96LW7)
inactive: [1] 0.059 | [2] 0.078 | [3] 0.104 | [4] -0.231 | [5] -0.05

CAAP1 (UniProt Q9H8G2)
inactive: [1] 0.11 | [2] 0.105 | [3] -0.028 | [4] 0.026 | [5] 0.014

CAPNS1 (UniProt P04632)
inactive: [1] 0.032 | [2] 0.024 | [3] 0.031 | [4] 0.009 | [5] 0

C15orf40 (UniProt Q8WUR7)
inactive: [1] -0.005 | [2] 0.013 | [3] 0.003 | [4] 0.063 | [5] 0.09

CAPRIN1 (UniProt Q14444)
inactive: [1] 0.063 | [2] -0.134 | [3] -0.181 | [4] 0.169 | [5] 0.071

C2CD2 (UniProt Q9Y426)
inactive: [1] -0.022 | [2] -0.066 | [3] -0.076 | [4] -0.051 | [5] 0.105

CAD (UniProt P27708)
inactive: [1] -0.115 | [2] 0.048 | [3] -0.019 | [4] -0.005 | [5] -0.033

BTN2A1 (UniProt Q7KYR7)
inactive: [1] 0.054 | [2] 0.154 | [3] 0.086 | [4] -0.131 | [5] -0.041

C18orf25 (UniProt Q96B23)
inactive: [1] 0.079 | [2] -0.03 | [3] -0.045 | [4] -0.026 | [5] -0.006

Reference: the supplement of paper PMC10849652
